Measured values as given in paper PMC4430907.
No constants are given. Whether binding was seen depends on the method and setting. Binding seen in cells or lysates may run through a third protein. Some binding calls cover weakened binding; strength is not graded here.

Amino acid sequences for entries named in this document (tags omitted).
UniProt P61769: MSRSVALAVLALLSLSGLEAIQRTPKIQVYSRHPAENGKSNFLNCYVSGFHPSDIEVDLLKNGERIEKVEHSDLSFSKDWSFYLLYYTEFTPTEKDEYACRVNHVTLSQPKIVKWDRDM

Target: β2-microglobulin (human (endogenous in HK-2)) (UniProt P61769)
Assay: co-IP; HK-2 cells; immunoprecipitation with a monoclonal anti-β2-M Ab and an anti-HFE Ab (Immunoprecipitation Starter Pack, GE Healthcare); Western blot of HFE; IgG Ab as control

B1: hemochromatosis (HFE) protein (protein, UniProt Q30201 23-348)
chain: RLLRSHSLHYLFMGASEQDLGLSLFEALGYVDDQLFVFYDHESRRVEPRTPWVSSRISSQMWLQLSQSLKGWDHMFTVDFWTIMENHNHSKESHTLQVILGCEMQEDNSTEGYWKYGYDGQDHLEFCPDTLDWRAAEPRAWPTKLEWERHKIRARQNRAYLERDCPAQLQQLLELGRGVLDQQVPPLVKVTHHVTSSVTTLRCRALNYYPQNITMKWLKDKQPMDAKEFEPKDVLPNGDGTYQGWITLAVPPGEEQRYTCQVEHPGLDQPLIVIWEPSPSGTLVIGVISGIAVFVVILFIGILFIILRKRQGSRGAMGHYVLAERE
B1 was tested, and the binding was “binds”.
